# Results taken from the supplement of paper PMC8728848.
# The other results are listed elsewhere or left out.
# Assays:
# Assay in all cases: glycan array binding signal (z-score within array); higher = stronger binding
# Conditions in all cases: glycan notation: IUPAC condensed, linker removed
# [1] = biological target: Gal6S(b1-4)Glc6S
# Method in brief: (§1)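 Glycan array data came from 3228 arrays in the Consortium for Functional Glycomics database, and only arrays with an available protein sequence were kept. Glycan names were put into IUPAC-condensed notation, and columns mapping to the same glycan were averaged. The binding signal is a within-array Z-score, averaged across arrays of one protein sequence run at different concentrations or buffers and across linkers. A negative Z-score can be read as non-binding.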
# [2] = biological target: Gal6S(b1-4)GlcNAc
# Method in brief: as §1
# [3] = biological target: Gal6S(b1-4)GlcNAc6S
# Method in brief: as §1
# [4] = biological target: GalNAc(a1-3)Gal
# Method in brief: as §1
# [5] = biological target: GalNAc(a1-3)GalNAc
# Method in brief: as §1
# [6] = biological target: GalNAc(a1-3)GalNAc(b1-3)Gal(a1-4)Gal(b1-4)Glc
# Method in brief: as §1
# [7] = biological target: GalNAc(a1-3)GalNAc(b1-3)Gal(a1-4)Gal(b1-4)GlcNAc
# Method in brief: as §1
# [8] = biological target: GalNAc(b1-3)Gal
# Method in brief: as §1
# [9] = biological target: GalNAc(b1-3)Gal(a1-4)Gal(b1-4)GlcNAc
# Method in brief: as §1
# [10] = biological target: GalNAc(b1-3)Gal(a1-4)Gal(b1-4)GlcNAc(b1-3)Gal(b1-4)Glc
# Method in brief: as §1
# [11] = biological target: GalNAc(b1-3)Gal(a1-6)Gal(b1-4)Glc
# Method in brief: as §1
# [12] = biological target: GalNAc(b1-3)GalNAc
# Method in brief: as §1
# [13] = biological target: GalNAc(b1-3)GlcNAc
# Method in brief: as §1
# [14] = biological target: GalNAc(b1-4)Gal(b1-4)Glc
# Method in brief: as §1
# [15] = biological target: GalNAc(b1-4)GlcNAc
# Method in brief: as §1
# [16] = biological target: GalNAc(b1-4)GlcNAc(b1-2)Man
# Method in brief: as §1
# [17] = biological target: GalNAc(b1-4)GlcNAc(b1-2)Man(a1-3)[GalNAc(b1-4)GlcNAc(b1-2)Man(a1-6)]Man(b1-4)GlcNAc(b1-4)GlcNAc
# Method in brief: as §1
# [18] = biological target: GalNAc(b1-4)GlcNAc(b1-3)GalNAc(b1-4)GlcNAc
# Method in brief: as §1
# [19] = biological target: GalNAc(b1-4)GlcNAc6S
# Method in brief: as §1
# [20] = biological target: GalNAc(b1-6)GalNAc
# Method in brief: as §1
# [21] = biological target: GalNAc3S(b1-4)GlcNAc
# Method in brief: as §1
# [22] = biological target: GalNAc3S(b1-4)GlcNAc3S
# Method in brief: as §1
# [23] = biological target: GalNAc3S(b1-4)[Fuc(a1-3)]GlcNAc
# Method in brief: as §1
# [24] = biological target: GalNAc4S6S(b1-4)GlcNAc
# Method in brief: as §1
# [25] = biological target: GalNAc6S(b1-4)GlcNAc
# Method in brief: as §1
# [26] = biological target: Glc(a1-4)Glc
# Method in brief: as §1
# [27] = biological target: Glc(a1-4)Glc(a1-4)Glc(a1-4)Glc
# Method in brief: as §1
# [28] = biological target: Glc(a1-6)Glc(a1-6)Glc
# Method in brief: as §1
# [29] = biological target: Glc(a1-6)Glc(a1-6)Glc(a1-6)Glc
# Method in brief: as §1
# [30] = biological target: Glc(b1-4)Glc
# Method in brief: as §1
# [31] = biological target: Glc(b1-6)Glc
# Method in brief: as §1
# [32] = biological target: GlcA(b1-3)Gal
# Method in brief: as §1
# [33] = biological target: GlcA(b1-3)GlcNAc
# Method in brief: as §1
# [34] = biological target: GlcA(b1-6)Gal
# Method in brief: as §1
# [35] = biological target: GlcA3S(b1-3)Gal(b1-4)GlcNAc(b1-2)Man
# Method in brief: as §1
# [36] = biological target: GlcA3S(b1-3)Gal(b1-4)GlcNAc(b1-3)Gal(b1-4)Glc
# Method in brief: as §1
# [37] = biological target: GlcNAc(a1-3)Gal(b1-4)GlcNAc
# Method in brief: as §1
binder,measurement,setting,value
PX14375D-bvu-513-34-513 (Bacteroides vulgatus) (protein) TEDTFWKDETDFNLALTSCYTPLKNALNGGYYGTRGVMLRIARADEVDFRNDISDVYTVNRFTNSNTNSLTQGMFYQFYNALYRTNSIMQKLEEKKEQFSTDFQNSVKGECLFIRGFYLFQLAKEFKDAPLRLTASQSPSTFPLAKSSQADIWAQAKEDLKTAASLLPITNKIGKPTQGAAYAALGKIYVYEENWQEAINVLEPLTQNPYTYKLVEDFNWNFDDTHENNAESIFELLIEDVGGTDLWGDGENINSTQSNTRPKEYAAAEVGGWYEANPTQQIMDIFWKEKDKDGNFDYRARCSVAWDYEGCTYYQRPFREVFAQDKWKTYWILKYQNWKTQKDEPAPPKSFINERAIRYADVLLMLAEAYMNKGALDTSIGYINQIRRRANLNDYSGPITKEGVFEDLVHQRAIEFFVEGERFYDLRRWGLLEQTLKTCDDTRYKNYQTGKSDNINKFNYFPIPAKELDTNPLCTPSEGW,glycan array binding signal (z-score),[1],0.348
same,glycan array binding signal (z-score),[2],0.623
same,glycan array binding signal (z-score),[3],-0.403
same,glycan array binding signal (z-score),[4],0.529
same,glycan array binding signal (z-score),[5],0.031
same,glycan array binding signal (z-score),[6],-1.13
same,glycan array binding signal (z-score),[7],0.762
same,glycan array binding signal (z-score),[8],-0.306
same,glycan array binding signal (z-score),[9],0.694
same,glycan array binding signal (z-score),[10],0.403
same,glycan array binding signal (z-score),[11],-0.002
same,glycan array binding signal (z-score),[12],-0.287
same,glycan array binding signal (z-score),[13],-0.773
same,glycan array binding signal (z-score),[14],-0.804
same,glycan array binding signal (z-score),[15],-0.013
same,glycan array binding signal (z-score),[16],0.399
same,glycan array binding signal (z-score),[17],-0.595
same,glycan array binding signal (z-score),[18],-0.579
same,glycan array binding signal (z-score),[19],0.547
same,glycan array binding signal (z-score),[20],0
same,glycan array binding signal (z-score),[21],0.353
same,glycan array binding signal (z-score),[22],-0.468
same,glycan array binding signal (z-score),[23],-0.617
same,glycan array binding signal (z-score),[24],0.934
same,glycan array binding signal (z-score),[25],-0.658
same,glycan array binding signal (z-score),[26],-0.303
same,glycan array binding signal (z-score),[27],-0.166
same,glycan array binding signal (z-score),[28],-0.642
same,glycan array binding signal (z-score),[29],0.354
same,glycan array binding signal (z-score),[30],0.371
same,glycan array binding signal (z-score),[31],-0.68
same,glycan array binding signal (z-score),[32],-0.476
same,glycan array binding signal (z-score),[33],-0.958
same,glycan array binding signal (z-score),[34],-0.039
same,glycan array binding signal (z-score),[35],-0.067
same,glycan array binding signal (z-score),[36],-0.213
same,glycan array binding signal (z-score),[37],-0.611

# Exported with tabs: entries from further up.
binder	measurement	setting	value
PX14375D-bvu-513-34-513 (Bacteroides vulgatus) (protein) TEDTFWKDETDFNLALTSCYTPLKNALNGGYYGTRGVMLRIARADEVDFRNDISDVYTVNRFTNSNTNSLTQGMFYQFYNALYRTNSIMQKLEEKKEQFSTDFQNSVKGECLFIRGFYLFQLAKEFKDAPLRLTASQSPSTFPLAKSSQADIWAQAKEDLKTAASLLPITNKIGKPTQGAAYAALGKIYVYEENWQEAINVLEPLTQNPYTYKLVEDFNWNFDDTHENNAESIFELLIEDVGGTDLWGDGENINSTQSNTRPKEYAAAEVGGWYEANPTQQIMDIFWKEKDKDGNFDYRARCSVAWDYEGCTYYQRPFREVFAQDKWKTYWILKYQNWKTQKDEPAPPKSFINERAIRYADVLLMLAEAYMNKGALDTSIGYINQIRRRANLNDYSGPITKEGVFEDLVHQRAIEFFVEGERFYDLRRWGLLEQTLKTCDDTRYKNYQTGKSDNINKFNYFPIPAKELDTNPLCTPSEGW	glycan array binding signal (z-score)	[6]	-1.13
same	glycan array binding signal (z-score)	[8]	-0.306
same	glycan array binding signal (z-score)	[10]	0.403
same	glycan array binding signal (z-score)	[12]	-0.287
same	glycan array binding signal (z-score)	[17]	-0.595
same	glycan array binding signal (z-score)	[30]	0.371
same	glycan array binding signal (z-score)	[31]	-0.68
same	glycan array binding signal (z-score)	[35]	-0.067
